From PubChem BioAssay record AID1053133 (Broad Institute, 2014).

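Plate-reader measure of the Venus reporter marking one vaccinia stage in infected cells (the cell line is not named here); read time unknown.
The test concentration is not given here.
Percent change in Venus reporter signal; lower (more negative) values mean stronger inhibition of that viral stage.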

Values are in %.
The controls that fix the scale are not given here.
Common to all entries: measured here: Venus reporter, other viral stage.
Part of the compounds only, not a random draw; the main read-out is not listed here.

structure,activity change (Venus) (%)
C[C@H](CO)N1C[C@H](C)[C@H](CN(C)Cc2ccc(Cl)c(Cl)c2)Oc2ccc(NC(=O)NC3CCCCC3)cc2C1=O,-31.92
C[C@@H]1CN([C@H](C)CO)C(=O)c2cc(C#CC3CCCCC3)cnc2O[C@@H]1CN(C)C(=O)C1CCCCC1,-23.14
Cc1ccc(S(=O)(=O)N2C[C@@H](O)COC[C@@H]3O[C@@H](CC(=O)N[C@H]4CCN(Cc5ccccc5)C4)CC[C@H]32)cc1,-31.79
O=C1CN(S(=O)(=O)Cc2ccccc2)C[C@@H]2[C@@H](c3ccc(C#Cc4cccc(F)c4)cc3)[C@@H](CO)N12,-81.66
C[C@H]1CN([C@@H](C)CO)C(=O)c2c(c3ccccc3n2C)-c2ccccc2CO[C@H]1CN(C)C(=O)Nc1ccc2c(c1)OCO2,-41.3
C[C@H]1CN([C@@H](C)CO)S(=O)(=O)c2ccc(C#CC(C)(C)O)cc2O[C@@H]1CN(C)Cc1ccccc1,-44.71
COc1ccc(C#Cc2ccc([C@@H]3[C@@H](CO)N4CCCCN(C(=O)Nc5ccccc5)C[C@H]34)cc2)cc1,-37.45
C[C@@H]1CN([C@@H](C)CO)C(=O)Cc2cc(NC(=O)CCN3CCOCC3)ccc2O[C@H]1CN(C)Cc1ccc(Cl)c(Cl)c1,-44.64
COc1ccc(CN(C)C[C@@H]2OCCCC[C@H](C)Oc3ccc(NS(=O)(=O)c4ccc(OC)cc4)cc3C(=O)N([C@@H](C)CO)C[C@H]2C)cc1,-43.29
C[C@H](CO)N1C[C@H](C)[C@H](CN(C)Cc2ccncc2)Oc2ncc(C#CCC3CCCCC3)cc2C1=O,-58.99
C[C@@H]1CCCCO[C@H](CN(C)C(=O)Nc2ccc3c(c2)OCO3)[C@H](C)CN([C@@H](C)CO)C(=O)c2cc(NC(=O)c3ccccc3)ccc2O1,-30.26
COc1cccc(NC(=O)N2CC[C@@H]3[C@H]2c2cc(-c4cccc(OC)c4)ccc2N(C)[C@H]3CO)c1,-45.07
Cc1ccc(S(=O)(=O)N(C)C[C@H]2OCCCC[C@H](C)Oc3ccc(NS(=O)(=O)c4ccc(F)cc4)cc3C(=O)N([C@H](C)CO)C[C@@H]2C)cc1,-41.05
C[C@@H]1CN([C@@H](C)CO)C(=O)c2cc(C#Cc3ccc(F)cc3)cnc2O[C@@H]1CN(C)CC1CCOCC1,-30.75
C[C@@H]1CN([C@@H](C)CO)C(=O)c2cc(NS(=O)(=O)c3ccc(F)cc3)ccc2O[C@@H]1CN(C)Cc1ccc(Cl)c(Cl)c1,-43.29
C[C@H](CO)N1C[C@H](C)[C@H](CN(C)S(=O)(=O)c2ccccc2)Oc2ncc(C#CC3CCCCC3)cc2C1=O,-31.93
COc1ccc(S(=O)(=O)N2CCCCN3[C@@H](CO)[C@@H](c4ccc(C5=CCCCC5)cc4)[C@@H]3C2)cc1,-46.24
C[C@@H]1CCCCO[C@@H](CN(C)CC2CCCCC2)[C@@H](C)CN([C@@H](C)CO)C(=O)c2cc(NC(=O)Nc3ccc(F)cc3)ccc2O1,-59.47
CCC(=O)N(C)C[C@@H]1Oc2cc(-c3ccc(C)cc3)ccc2S(=O)(=O)N([C@H](C)CO)C[C@@H]1C,-38.52
CC(C)CC#Cc1ccc2c(c1)O[C@H](CN(C)C(=O)Nc1ccccc1)[C@@H](C)CN([C@@H](C)CO)S2(=O)=O,-25.55
COc1ccc([Si](C)(C)[C@H]2[C@H](CCn3cc(CCO)nn3)O[C@@]3(C(=O)N(C)c4c(Br)cc(C)cc43)[C@@H]2C)cc1,-77.56
COc1ccccc1NC(=O)N(C)C[C@H]1OCc2ccccc2-c2c(n(C)c3ccccc23)C(=O)N([C@H](C)CO)C[C@@H]1C,-36.97
Cc1ccc(-c2ccc(C3[C@@H]4CN(Cc5cccc(F)c5)C[C@H]3N4)cc2)cc1 (some centres unmarked),-85.6
COc1ccc(CN(C)C[C@H]2OCCCC[C@@H](C)Oc3ccc(NC(=O)Nc4ccc(C(F)(F)F)cc4)cc3C(=O)N([C@H](C)CO)C[C@@H]2C)cc1,-34.88
COc1ccc2c3c([nH]c2c1)[C@@H](CO)N(Cc1ccccc1)CC31CCN(CC2CC2)CC1,-64.2
CCCNC(=O)N1CC(=O)N2[C@H](CO)[C@@H](c3ccc(C#Cc4ccc(F)cc4)cc3)[C@@H]2C1,-29.32
COc1ccc(CN(C)C[C@H]2Oc3ccc(NC(=O)Nc4ccccc4)cc3C(=O)N([C@@H](C)CO)C[C@H]2C)cc1,-17.64
C[C@H](CO)N1C[C@H](C)[C@@H](CN(C)C(=O)Nc2cc(F)ccc2F)Oc2cc(C#CC3CCCC3)ccc2S1(=O)=O,-43.46
O=C(Cc1ccccn1)N1CC(=O)N2[C@H](CO)[C@@H](c3ccc(C#CCC4CCCC4)cc3)[C@H]2C1,-22.35
C[C@@H]1CN([C@H](C)CO)S(=O)(=O)c2ccc(C#CCC3CCCC3)cc2O[C@H]1CN(C)C(=O)CN(C)C,-63.85
Cc1ccc(-c2cnc3c(c2)C(=O)N([C@@H](C)CO)C[C@@H](C)[C@H](CN(C)Cc2ccccc2F)O3)cc1,-30.55
Cc1noc(C)c1S(=O)(=O)N(C)C[C@@H]1OCc2ccccc2-c2c(n(C)c3ccccc23)C(=O)N([C@@H](C)CO)C[C@@H]1C,-40.86
COCC(=O)NC[C@H]1N[C@H](CO)[C@@H]1c1ccc(-c2ccccc2F)cc1,-41.08
Cc1ccc(-c2ccc3c(c2)O[C@H](CN(C)Cc2cccnc2)[C@@H](C)CN([C@H](C)CO)S3(=O)=O)cc1,-62.41
C[C@@H]1CN([C@H](C)CO)C(=O)Cc2cc(NC(=O)C3CCCCC3)ccc2O[C@H]1CN(C)Cc1ccc(Cl)c(Cl)c1,-28.97
C[C@@H]1CCCCO[C@H](CN(C)C(=O)CCC(F)(F)F)[C@H](C)CN([C@@H](C)CO)C(=O)c2cc(NS(=O)(=O)c3ccc(Cl)cc3)ccc2O1,-36.54
COc1ccccc1-c1cnc2c(c1)C(=O)N([C@@H](C)CO)C[C@H](C)[C@H](CN(C)Cc1ccc(F)cc1)O2,-40.79
C[C@H](CO)N1C[C@H](C)[C@H](CN(C)Cc2ccc(-c3ccccc3)cc2)Oc2ccc(NC(=O)CCCN(C)C)cc2C1=O,-28.39
OC[C@@H]1[C@H](c2ccc(C#Cc3ccccc3F)cc2)[C@H]2CN(CC3CCOCC3)CCCCN12,-38.45
C[C@@H]1CN([C@@H](C)CO)C(=O)c2cc(NC(=O)Nc3ccc4c(c3)OCO4)ccc2O[C@@H]1CN(C)Cc1ccc2c(c1)OCO2,-25.83
COc1ccc(NC(=O)Nc2ccc3c(c2)C(=O)N([C@@H](C)CO)C[C@@H](C)[C@H](CN(C)Cc2ccccc2)OCCCC[C@H](C)O3)cc1,-50.79
C[C@@H]1CN([C@H](C)CO)S(=O)(=O)c2ccc(C#Cc3ccncc3)cc2O[C@H]1CN(C)C(=O)C1CCCCC1,-43.59
O=S(=O)(c1ccccc1F)N1C[C@@H]2N[C@H](C1)C2c1ccc(-c2ccncc2)cc1 (some centres unmarked),-49.24
COc1ccc2c3c([nH]c2c1)[C@H](CO)N(C(=O)c1ccc(F)cc1)CC31CN(C(=O)Nc2cccc(F)c2)C1,-82.86
COc1ccc(-c2ccc([C@@H]3[C@H](CO)N4CCCCN(C(=O)Cc5ccccc5)C[C@@H]34)cc2)cc1,-40.71
CC(C)C#Cc1ccc([C@@H]2[C@H]3CN(C(=O)Nc4ccccc4)CCCCN3[C@H]2CO)cc1,-53.72
COc1ccc(CN(C)C[C@@H]2OCCCC[C@@H](C)Oc3ccc(NC(=O)Nc4ccc(OC)cc4)cc3C(=O)N([C@H](C)CO)C[C@H]2C)cc1,-48.83

2 of the entries, repeated:

structure	activity change (Venus) (%)
C[C@@H]1CCCCO[C@@H](CN(C)CC2CCCCC2)[C@@H](C)CN([C@@H](C)CO)C(=O)c2cc(NC(=O)Nc3ccc(F)cc3)ccc2O1	-59.47
C[C@@H]1CCCCO[C@H](CN(C)C(=O)CCC(F)(F)F)[C@H](C)CN([C@@H](C)CO)C(=O)c2cc(NS(=O)(=O)c3ccc(Cl)cc3)ccc2O1	-36.54